According to PubChem BioAssay AID540276 (National Center for Advancing Translational Sciences (NCATS), 2011):
About 5,400 (1.8%) of roughly 300,000 compounds were called active. This list was built around the results that the source calls inconclusive (neither active nor inactive); the mix of calls is not that of the screen. The call rests on the fitted dose curve; tested in HEK293 cells. Where the call is inconclusive, the potency comes from a doubtful curve fit.
On the % scale 0 is the no-effect control and ±100 the full control effect; potency means the concentration at half of the fitted maximal effect.

Test: qHTS for inhibitors of binding or entry into cells for Marburg Virus
Details: Marburg virus pseudotyped entry inhibition, cell reporter; activity change, negative = inhibition: at 37.8 µM (top of the series) unless noted
With `Cc1ccccc1NC(=O)c1ccc(S(=O)(=O)C(F)F)cc1` the “activity change, negative = inhibition” value was inactive: 28.6%.
In the case of `Cc1cc(C)nc(Sc2nc(Nc3ccccc3)nc(Sc3nc(C)cc(C)n3)n2)n1`, the Potency was inconclusive: 35.5 µM [inhibitor, single point].
For `CCC(C)N(C(=O)Cn1c(Cl)nc2c1c(=O)n(C)c(=O)n2C)C1CCS(=O)(=O)C1` (stereo unspecified), the Potency was inconclusive: 17.8 µM [activator, single point].
In the case of `COc1ccc2c(c1)c1ncn(CCN3CCNCC3)c(=O)c1n2C`, the Potency was inconclusive: 29.1 µM [inhibitor, single point].
For `Cc1cccc(NCc2ccccc2O)c1C`, the “activity change, negative = inhibition” value was inactive: 11.2%.
In the case of `CCOc1cc(/C=N/NC(=O)C(=O)N/N=C/c2ccc(O)c(OCC)c2)ccc1O`, the “activity change, negative = inhibition” value was inactive: -13.9%.
In the case of `COC(=O)c1cc(O)c(OCc2ccccc2)c(O)c1`, the “activity change, negative = inhibition” value was inactive: 8.5%.
For `CCOc1ccc(S(=O)(=O)N2CCOCC2)cc1NC(=O)CN1C(=O)NC(C)(c2ccccc2)C1=O` (stereo unspecified), the Potency was inconclusive: 35.5 µM [activator, single point].
For `O=C(NCc1ccc2c(c1)OCO2)C(C(=O)c1ccccc1)n1cc(Cl)ccc1=O` (stereo unspecified), the “activity change, negative = inhibition” value was inactive: -5.14%.
For `COC(=O)c1ccc(NC(=O)CN2CCN(CCO)CC2)cc1`, the Potency was inconclusive: 5.62 µM [inhibitor, single point].
For `CCCCN=C[C@]12CCC(O)CC1(O)CCC1[C@@H]2CC[C@]2(C)[C@H](C3C=CC(=O)O3)CCC12O` (stereo partly specified), the Potency was active: 3.55 µM.
For `CCCC(=O)Oc1ccc(-c2nccc(C(OC)OC)n2)cc1`, the Potency was inconclusive: 5.62 µM [activator, single point].
In the case of `CCc1ccccc1NC(=O)c1cnn(-c2ccccc2)c1C`, the Potency was inconclusive: 3.16 µM [inhibitor, partial curve, poor fit].
With `CCCc1ccc(C(=O)[C@@H]2[C@@H](C(C)=O)N3c4ccc(F)cc4C=C[C@@H]3[C@@]23C(=O)Nc2ccccc23)cc1` the Potency was inconclusive: 20 µM [inhibitor, partial curve, poor fit].
For `CCOC(=O)c1[nH]c(C)c(C(=O)OCCN2C(=O)c3ccccc3C2=O)c1C`, the Potency was inconclusive: 29.1 µM [inhibitor, single point].
In the case of `COc1ccccc1NC(=O)CSc1nc(O)c(C/C=C/c2ccccc2)c(=O)[nH]1`, the “activity change, negative = inhibition” value was inactive: 1.32% [at 46.1 µM].
In the case of `CN(CCC1CCOCC1)C(=O)CC1C(=O)NCCN1Cc1ccccc1F` (stereo unspecified), the “activity change, negative = inhibition” value was inactive: -6.89%.
For `O=C(N/N=C/c1ccc[nH]1)c1ccc(Cl)cc1`, the “activity change, negative = inhibition” value was inactive: -19.2%.
In the case of `Cc1ccc(Oc2nc3ccccn3c(=O)c2/C=C(\C#N)C(=O)Nc2c(C)n(C)n(-c3ccccc3)c2=O)c(C)c1`, the Potency was inconclusive: 11.2 µM [inhibitor, partial curve].
With `CCOc1cc2[nH]c(=S)n(CCC(=O)N3CCc4ccccc4C3)c(=O)c2cc1OCC` the “activity change, negative = inhibition” value was inactive: 6.47%.
In the case of `O=[N+]([O-])c1ccc(S(=O)(=O)CC(CN2CCCCC2)N2CCCCC2)cc1` (stereo unspecified), the Potency was active: 4.61 µM.
In the case of `O=C(COC(=O)C(Cc1ccccc1)NC(=O)c1ccccc1)c1ccccc1` (stereo unspecified), the “activity change, negative = inhibition” value was inactive: -0.262% [at 46.1 µM].
For `COc1cc(/C=C2\C(=O)ON=C2c2ccccc2)cc(Cl)c1O`, the “activity change, negative = inhibition” value was inactive: -4.39% [at 46.1 µM].
In the case of `CCCCNc1nc(-c2ccccc2)nc(-n2ccnc2)n1`, the Potency was inconclusive: 29.1 µM [inhibitor, single point].
For `NC(=O)N/N=C/c1sc(=O)n(-c2ccccc2)c1Cl`, the “activity change, negative = inhibition” value was inactive: -1.2%.
For `O=C(NNC1=Nc2ccccc2SC1)c1ccc(F)cc1`, the Potency was inconclusive: 3.16 µM [inhibitor, single point].
For `CN(Cc1ccccc1)c1nnc(NC(=O)Nc2cccc(Br)c2)s1`, the Potency was inconclusive: 15.8 µM [inhibitor, single point].
With `COc1ccccc1C1=NOC(Cn2c(NCCCO)nc3c2c(=O)n(C)c(=O)n3C)C1` (stereo unspecified) the “activity change, negative = inhibition” value was inactive: 0.327%.
For `Cc1cc(N2CCN(C)CC2)nc2ccc(NC(=O)c3ccc(C(C)(C)C)cc3)cc12`, the Potency was inconclusive: 35.5 µM [inhibitor, single point].
With `Cc1nnc(SCC2=C(C(=O)O)N3C(=O)C(NC(=O)Cn4ncc(Cl)c4C)C3SC2)s1` (stereo unspecified) the “activity change, negative = inhibition” value was inactive: 12.9% [at 46.1 µM].
With `CCOC(=O)Cc1csc(NS(=O)(=O)c2ccc(Cl)cc2)n1` the “activity change, negative = inhibition” value was inactive: -2.07%.
With `C[n+]1c(-c2ccccc2)cc(CCCCc2cc(-c3ccccc3)[n+](C)c(-c3ccccc3)c2)cc1-c1ccccc1` the Potency was inconclusive: 35.5 µM [inhibitor, single point].
In the case of `COc1ccc(NC(=O)CSC2CCCCC2)cc1`, the Potency was inconclusive: 6.51 µM [activator, single point].
In the case of `O=C(c1ccc(-c2nc3ccccc3s2)o1)N1CCN(c2ccccc2O)CC1`, the Potency was inconclusive: 2.24 µM [inhibitor, partial curve, poor fit].
With `CC1(C)CC(=O)c2cc(C(=O)N3CCCC(C)(C)C3)c(=O)n(-c3ccccc3)c2C1` the “activity change, negative = inhibition” value was inactive: 3.71%.
For `CC1CC(=O)c2cnc(N3CCOCC3)nc2C1` (stereo unspecified), the Potency was inconclusive: 23.1 µM [activator, single point].
